Assay results as given in publication PMC9905709.

System: DROSHA D3-G2 complex (DROSHA fragment D3 + DGCR8 fragment G2) + SRSF7
Assay: EMSA
Conditions: 2 mM EDTA, ternary complex supershift, denser than DROSHA/RNA band, EMSA: 50 mM Tris-HCl pH 7.5, 125 mM NaCl, 10% glycerol, 0.2 mg/ml BSA, 1 mM DTT, 12 ul, on ice 1 h, 4% native PAGE, 1x TBE, 4 C, ethidium bromide, recombinant protein

Q: Does “GGGCGGACAGACAGACAGUGCAGUCACCCAUAAAGUAGAAAGCACUACUAACAGCACUGGAGGGUGUAGUGUUUCCUACUUUAUGGAUGAGUGUACUGUGGGCUUCGG [pri-miR-142 (CNNC, CUUC WT)]” bind?
A: binds

Construct, isoform or probe ends are uncertain for at least one entry.
